## Results from one PubChem assay

The results are deposited in PubChem (AID1224904; Broad Institute, 2016).

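Control-channel Italica luciferase signal in doxycycline-induced 293T-iDUX4 cells, given as percent activity after a 24-hour treatment.
The test concentration is not given here.
Percent change in the Italica control signal; more negative values mean stronger inhibition, which points to nonspecific, tet-on or cytotoxic effects.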

Values are in %.
Common to all entries: measured here: Italica tet-on control reporter.
This is a side read-out of the assay, for part of the compounds, not drawn at random.

COc1cccc(-c2ccc(C3[C@@H]4CN(C(=O)c5ccc(F)cc5)C[C@H]3N4)cc2)c1 (some centres undefined) read activity change -6.952%.
CCC(=O)N1CCC2(CC1)CN(Cc1cccc(OC)c1)[C@@H](CO)c1[nH]c3cc(OC)ccc3c12 read activity change -21.01%.
O=C(Nc1ccccc1)N1CC(=O)N2[C@@H](CO)[C@@H](c3ccc(C#CC4CCCCC4)cc3)[C@@H]2C1 read activity change -10.24%.
O=C(C[C@@H]1CC[C@@H]2[C@H](COC[C@@H](O)CN2S(=O)(=O)c2cccc(Cl)c2)O1)Nc1ccc(-c2ccccc2)cc1 read activity change -28.25%.
Fc1ccc(-c2ccc(C3[C@@H]4CN(Cc5ccccc5)C[C@H]3N4)cc2)cc1 (some centres undefined) read activity change -5.414%.
COc1cccc(S(=O)(=O)Nc2ccc3c(c2)[C@H]2C[C@H](CC(=O)NCCc4ccccc4)O[C@@H](CO)[C@H]2O3)c1 read activity change -8.256%.
Cc1ccccc1S(=O)(=O)N1CC(=O)N2[C@H](C1)[C@@H](c1ccc(C#CCN(C)C)cc1)[C@@H]2CO read activity change -12.4%.
O=C(Nc1ccc(F)cc1)N1CCCCN2[C@H](CO)[C@H](c3ccc(C#Cc4ccccc4)cc3)[C@@H]2C1 read activity change -14.07%.
COc1ccc(NC(=O)N2CC(=O)N3[C@H](CO)[C@H](c4ccc(/C=C/c5ccccc5)cc4)[C@H]3C2)cc1 read activity change -37.83%.
COc1cccc(C(=O)Nc2ccc3c(c2)OC[C@@H](C)N(CCc2ccccc2)C[C@@H](C)[C@H](OC)CN(C)C3=O)c1 read activity change -14.8%.
COc1cccc(-c2ccc3c(c2)[C@H]2[C@H](CCN2C(=O)c2ccc4c(c2)OCO4)[C@H](CO)N3C)c1 read activity change -63.35%.
CN1c2ccc(C#Cc3cccnc3)cc2[C@H]2[C@H](CCN2S(=O)(=O)c2cccc(F)c2)[C@H]1CO read activity change -17.53%.
COc1ccc(CN2CC3(CN(C(=O)Cc4ccccc4)C3)c3c([nH]c4cc(OC)ccc34)[C@@H]2CO)cc1 read activity change -45.81%.
O=C(CCN1CCCCC1)N[C@@H]1CC[C@@H](CC(=O)N2CCC(Cc3ccccc3)CC2)O[C@@H]1CO read activity change -5.365%.
CN(C)C(=O)c1ccc(-c2ccc3c(c2)[C@H]2[C@H](CCN2C(=O)c2ccc(F)cc2)[C@@H](CO)N3C)cc1 read activity change -66.31%.
O=C(c1cccnc1)N1CC(=O)N2[C@H](CO)[C@@H](c3ccc(/C=C/c4ccccc4)cc3)[C@@H]2C1 read activity change -13.23%.
CC(C)NC(=O)N1CCCCN2[C@@H](CO)[C@@H](c3ccc(C#Cc4ccccc4)cc3)[C@@H]2C1 read activity change -17.19%.
COc1ccccc1-c1ccc2n(c1=O)C[C@@H]1[C@@H](CO)[C@H](C(=O)NCc3ccccn3)[C@H]2N1C read activity change 0.9077%.
CO[C@H]1CN(C)C(=O)c2cc(NC(=O)Nc3ccc(Cl)cc3)ccc2OC[C@H](C)N(C)C[C@@H]1C read activity change -20.81%.
O=C(Nc1cccc(F)c1)N1CCCCN2[C@H](C1)[C@@H](c1ccc(C#CC3CC3)cc1)[C@@H]2CO read activity change -15.86%.
COc1ccc2c3c(n(C)c2c1)[C@@H](CO)N(C(=O)Nc1ccc(F)cc1)CC31CCN(Cc2cccnc2)CC1 read activity change -24.25%.
O=C(C[C@@H]1CC[C@H]2[C@@H](COC[C@H](O)CN2Cc2cc(F)ccc2F)O1)NCc1ccc(Cl)cc1 read activity change -15.99%.
COC(=O)[C@H]1[C@H](CO)[C@H]2Cn3c(ccc(C4=CCCCC4)c3=O)[C@@H]1N2CC1CCCCC1 read activity change -18.67%.
COc1cccc(-c2ccc3c(c2)[C@H]2[C@H](CCN2C(=O)c2ccccc2F)[C@H](CO)N3C)c1 read activity change -85.44%.
COc1cccc(C(=O)Nc2ccc3c(c2)OC[C@@H](C)N(CCc2ccccc2)C[C@@H](C)[C@@H](OC)CN(C)C3=O)c1 read activity change -6.855%.
CO[C@H](C(=O)N(C)C[C@@H]1OCc2ccccc2-c2c(n(C)c3ccccc23)C(=O)N([C@H](C)CO)C[C@H]1C)c1ccccc1 read activity change -26.85%.
COc1ccc2c3c(n(C)c2c1)[C@@H](CO)N(Cc1ccccc1Cl)CC31CCN(C(=O)CN(C)C)CC1 read activity change -5.459%.
COc1ccc2c3c([nH]c2c1)[C@H](CO)N(C(=O)NC(C)C)CC31CN(Cc2ccc(F)cc2)C1 read activity change -6.512%.
COc1cccc(-c2ccc(C3[C@@H]4CN(Cc5ccccn5)C[C@H]3N4)cc2)c1 (some centres undefined) read activity change -0.7958%.
COc1cccc(-c2ccc(C3[C@@H]4CN(S(=O)(=O)c5ccccc5C)C[C@H]3N4)cc2)c1 (some centres undefined) read activity change -53.14%.
O=C(Cc1cccnc1)N1CCCCN2[C@H](C1)[C@H](c1ccc(C#CC3CCCC3)cc1)[C@@H]2CO read activity change -50.56%.
COc1ccc(C#Cc2ccc([C@H]3[C@H]4CN(C(=O)c5ccncc5)CCCCN4[C@H]3CO)cc2)cc1 read activity change -25.8%.
Cc1ccc(S(=O)(=O)N2C[C@H](O)COC[C@H]3O[C@H](CC(=O)NCc4ccc(Cl)c(Cl)c4)CC[C@@H]32)cc1 read activity change -40.26%.
COc1ccc(-c2ccc3n(c2=O)C[C@H]2[C@H](CO)[C@@H](C(=O)N4CCCCC4)[C@@H]3N2C)cc1 read activity change -0.6041%.
COc1cccc(S(=O)(=O)N2C[C@@H]3N[C@H](C2)C3c2ccc(-c3ccccc3F)cc2)c1 (some centres undefined) read activity change -2.81%.
COc1ccc2c3c([nH]c2c1)[C@@H](CO)N(Cc1ccccc1)CC31CN(C(C)=O)C1 read activity change -27.85%.
O=C(C[C@@H]1C[C@H]2c3cc(NS(=O)(=O)c4ccc(F)cc4)ccc3O[C@H]2[C@@H](CO)O1)NCc1ccc(Oc2ccccc2)cc1 read activity change -71.17%.
CO[C@@H]1CN(C)C(=O)c2ccc(NC(=O)Nc3ccc4c(c3)OCO4)cc2OC[C@@H](C)NC[C@@H]1C read activity change 11.52%.
COc1cccc(-c2ccc([C@H]3[C@@H](C#N)N(C(=O)c4ccccn4)[C@H]3CO)cc2)c1 read activity change -28.61%.
O=C(Cc1ccncc1)N1CCCCN2[C@H](CO)[C@H](c3ccc(C#Cc4ccccc4F)cc3)[C@H]2C1 read activity change -25.57%.
CN1c2ccc(-c3ccc(F)cc3)cc2[C@H]2[C@H](CCN2S(=O)(=O)c2cccc(F)c2)[C@H]1CO read activity change -64.18%.
C[C@H]1CN([C@@H](C)CO)C(=O)c2c(c3ccccc3n2C)-c2ccccc2CO[C@@H]1CN(C)Cc1ccc(Oc2ccccc2)cc1 read activity change -16.7%.

The first 3 entries again:

- COc1cccc(-c2ccc(C3[C@@H]4CN(C(=O)c5ccc(F)cc5)C[C@H]3N4)cc2)c1 (some centres undefined) : activity change -6.952%
- CCC(=O)N1CCC2(CC1)CN(Cc1cccc(OC)c1)[C@@H](CO)c1[nH]c3cc(OC)ccc3c12 : activity change -21.01%
- O=C(Nc1ccccc1)N1CC(=O)N2[C@@H](CO)[C@@H](c3ccc(C#CC4CCCCC4)cc3)[C@@H]2C1 : activity change -10.24%